{"source": "the supplement of paper PMC8728848", "binders": {"B1": {"name": "FimA-N2 (Actinomyces oris) (protein)", "chain": "MHHHHHHSSGVDLGTENLYFQSNAWIYDVNVYPKNEAIDVDKTIQAQKLNGYGVGSLIKFPVESTAPTLDAKSFYKYFQLKDTLDERLSEVTATDVSLEGTPLQPTDYKVETKQQTVTVTFTAEGLKKIKAAPGKKVSAVFQGKVTKAGNGAITNRAQVISDTLYAEQPPTPETPPTDPENPPTSDEVISRWGDLSIKKVDTHQQGQTKA"}}, "test_in_all_cases": "glycan array binding signal (z-score within array); higher = stronger binding", "conditions_in_all_cases": "glycan notation: IUPAC condensed, linker removed", "key": {"[1]": {"biological_target": "Neu5Ac(a2-6)Gal(b1-4)GlcNAc(b1-2)Man(a1-3)[Man(a1-6)]Man(b1-4)GlcNAc(b1-4)GlcNAc", "in_short": "(§1)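 The binding signal is a Z-score computed within each array. Data were drawn from 3228 arrays in the Consortium for Functional Glycomics database, restricted to those with a known protein sequence. Scores were averaged over arrays of the same protein sequence at different concentrations or buffers, and over linkers, and negative values can be taken as non-binding.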"}, "[2]": {"biological_target": "Neu5Ac(a2-6)Gal(b1-4)GlcNAc(b1-2)Man(a1-3)[Neu5Ac(a2-3)Gal(b1-4)GlcNAc(b1-2)Man(a1-6)]Man(b1-4)GlcNAc(b1-4)GlcNAc", "in_short": "as §1"}, "[3]": {"biological_target": "Neu5Ac(a2-6)Gal(b1-4)GlcNAc(b1-2)Man(a1-3)[Neu5Ac(a2-6)Gal(b1-4)GlcNAc(b1-2)Man(a1-6)]Man(b1-4)GlcNAc(b1-4)GlcNAc", "in_short": "as §1"}, "[4]": {"biological_target": "Neu5Ac(a2-6)Gal(b1-4)GlcNAc(b1-2)Man(a1-3)[Neu5Ac(a2-6)Gal(b1-4)GlcNAc(b1-2)Man(a1-6)]Man(b1-4)GlcNAc(b1-4)[Fuc(a1-6)]GlcNAc", "in_short": "as §1"}, "[5]": {"biological_target": "Neu5Ac(a2-6)Gal(b1-4)GlcNAc(b1-2)Man(a1-6)Man(b1-4)GlcNAc(b1-4)GlcNAc", "in_short": "as §1"}, "[6]": {"biological_target": "Neu5Ac(a2-6)Gal(b1-4)GlcNAc(b1-2)Man(a1-6)[Gal(b1-4)GlcNAc(b1-2)Man(a1-3)]Man(b1-4)GlcNAc(b1-4)GlcNAc", "in_short": "as §1"}, "[7]": {"biological_target": "Neu5Ac(a2-6)Gal(b1-4)GlcNAc(b1-2)Man(a1-6)[GlcNAc(b1-2)Man(a1-3)]Man(b1-4)GlcNAc(b1-4)GlcNAc", "in_short": "as §1"}, "[8]": {"biological_target": "Neu5Ac(a2-6)Gal(b1-4)GlcNAc(b1-2)Man(a1-6)[Man(a1-3)]Man(b1-4)GlcNAc(b1-4)GlcNAc", "in_short": "as §1"}, "[9]": {"biological_target": "Neu5Ac(a2-6)Gal(b1-4)GlcNAc(b1-2)[Neu5Ac(a2-6)Gal(b1-4)GlcNAc(b1-4)]Man(a1-3)[GlcNAc(b1-4)][Neu5Ac(a2-6)Gal(b1-4)GlcNAc(b1-2)[Neu5Ac(a2-6)Gal(b1-4)GlcNAc(b1-6)]Man(a1-6)]Man(b1-4)GlcNAc(b1-4)GlcNAc", "in_short": "as §1"}, "[10]": {"biological_target": "Neu5Ac(a2-6)Gal(b1-4)GlcNAc(b1-2)[Neu5Ac(a2-6)Gal(b1-4)GlcNAc(b1-4)]Man(a1-3)[GlcNAc(b1-4)][Neu5Ac(a2-6)Gal(b1-4)GlcNAc(b1-4)Man(a1-6)]Man(b1-4)GlcNAc(b1-4)GlcNAc", "in_short": "as §1"}, "[11]": {"biological_target": "Neu5Ac(a2-6)Gal(b1-4)GlcNAc(b1-2)[Neu5Ac(a2-6)Gal(b1-4)GlcNAc(b1-6)]Man(a1-6)[Neu5Ac(a2-6)Gal(b1-4)GlcNAc(b1-2)Man(a1-3)][GlcNAc(b1-4)]Man(b1-4)GlcNAc(b1-4)GlcNAc", "in_short": "as §1"}, "[12]": {"biological_target": "Neu5Ac(a2-6)Gal(b1-4)GlcNAc(b1-3)Gal(b1-3)GlcNAc", "in_short": "as §1"}, "[13]": {"biological_target": "Neu5Ac(a2-6)Gal(b1-4)GlcNAc(b1-3)Gal(b1-4)GlcNAc", "in_short": "as §1"}, "[14]": {"biological_target": "Neu5Ac(a2-6)Gal(b1-4)GlcNAc(b1-3)Gal(b1-4)GlcNAc(b1-2)Man(a1-3)[Neu5Ac(a2-6)Gal(b1-4)GlcNAc(b1-3)Gal(b1-4)GlcNAc(b1-2)Man(a1-6)]GalNAc", "in_short": "as §1"}, "[15]": {"biological_target": "Neu5Ac(a2-6)Gal(b1-4)GlcNAc(b1-3)Gal(b1-4)GlcNAc(b1-3)Gal(b1-4)GlcNAc", "in_short": "as §1"}, "[16]": {"biological_target": "Neu5Ac(a2-6)Gal(b1-4)GlcNAc(b1-3)Gal(b1-4)GlcNAc(b1-3)Gal(b1-4)GlcNAc(b1-2)Man(a1-3)[Neu5Ac(a2-6)Gal(b1-4)GlcNAc(b1-3)Gal(b1-4)GlcNAc(b1-3)Gal(b1-4)GlcNAc(b1-2)Man(a1-6)]GalNAc", "in_short": "as §1"}, "[17]": {"biological_target": "Neu5Ac(a2-6)Gal(b1-4)GlcNAc(b1-3)Gal(b1-4)GlcNAc(b1-3)GalNAc", "in_short": "as §1"}, "[18]": {"biological_target": "Neu5Ac(a2-6)Gal(b1-4)GlcNAc(b1-3)Gal(b1-4)GlcNAc(b1-3)[Neu5Ac(a2-6)Gal(b1-4)GlcNAc(b1-3)Gal(b1-4)GlcNAc(b1-6)]GalNAc", "in_short": "as §1"}, "[19]": {"biological_target": "Neu5Ac(a2-6)Gal(b1-4)GlcNAc(b1-3)Gal(b1-4)GlcNAc(b1-6)[Gal(b1-3)]GalNAc", "in_short": "as §1"}, "[20]": {"biological_target": "Neu5Ac(a2-6)Gal(b1-4)GlcNAc(b1-3)Gal(b1-4)[Fuc(a1-3)]GlcNAc(b1-3)Gal(b1-4)[Fuc(a1-3)]GlcNAc", "in_short": "as §1"}, "[21]": {"biological_target": "Neu5Ac(a2-6)Gal(b1-4)GlcNAc(b1-3)GalNAc", "in_short": "as §1"}, "[22]": {"biological_target": "Neu5Ac(a2-6)Gal(b1-4)GlcNAc(b1-3)[Neu5Ac(a2-6)Gal(b1-4)GlcNAc(b1-6)]GalNAc", "in_short": "as §1"}, "[23]": {"biological_target": "Neu5Ac(a2-6)Gal(b1-4)GlcNAc(b1-6)GalNAc", "in_short": "as §1"}, "[24]": {"biological_target": "Neu5Ac(a2-6)Gal(b1-4)GlcNAc(b1-6)[Gal(b1-3)GlcNAc(b1-3)]Gal(b1-4)Glc", "in_short": "as §1"}, "[25]": {"biological_target": "Neu5Ac(a2-6)Gal(b1-4)GlcNAc(b1-6)[Gal(b1-3)]GalNAc", "in_short": "as §1"}, "[26]": {"biological_target": "Neu5Ac(a2-6)Gal(b1-4)GlcNAc6S", "in_short": "as §1"}, "[27]": {"biological_target": "Neu5Ac(a2-6)GalNAc", "in_short": "as §1"}, "[28]": {"biological_target": "Neu5Ac(a2-6)GalNAc(b1-4)GlcNAc", "in_short": "as §1"}, "[29]": {"biological_target": "Neu5Ac(a2-6)GalNAc(b1-4)GlcNAc6S", "in_short": "as §1"}, "[30]": {"biological_target": "Neu5Ac(a2-6)GlcNAc(b1-4)GlcNAc", "in_short": "as §1"}, "[31]": {"biological_target": "Neu5Ac(a2-6)GlcNAc(b1-4)GlcNAc(b1-4)GlcNAc", "in_short": "as §1"}}, "note": "This is one part of the list.", "data": [{"binder": "B1", "values": [{"measurement": "glycan array binding signal (z-score)", "setting": "[1]", "result": 0.005}, {"measurement": "glycan array binding signal (z-score)", "setting": "[2]", "result": 0.884}, {"measurement": "glycan array binding signal (z-score)", "setting": "[3]", "result": 0.297}, {"measurement": "glycan array binding signal (z-score)", "setting": "[4]", "result": 0.538}, {"measurement": "glycan array binding signal (z-score)", "setting": "[5]", "result": -0.759}, {"measurement": "glycan array binding signal (z-score)", "setting": "[6]", "result": -1.01}, {"measurement": "glycan array binding signal (z-score)", "setting": "[7]", "result": 0.589}, {"measurement": "glycan array binding signal (z-score)", "setting": "[8]", "result": -0.882}, {"measurement": "glycan array binding signal (z-score)", "setting": "[9]", "result": -0.605}, {"measurement": "glycan array binding signal (z-score)", "setting": "[10]", "result": -0.955}, {"measurement": "glycan array binding signal (z-score)", "setting": "[11]", "result": -1.28}, {"measurement": "glycan array binding signal (z-score)", "setting": "[12]", "result": 1.22}, {"measurement": "glycan array binding signal (z-score)", "setting": "[13]", "result": -0.606}, {"measurement": "glycan array binding signal (z-score)", "setting": "[14]", "result": 1.3}, {"measurement": "glycan array binding signal (z-score)", "setting": "[15]", "result": 0.232}, {"measurement": "glycan array binding signal (z-score)", "setting": "[16]", "result": -0.267}, {"measurement": "glycan array binding signal (z-score)", "setting": "[17]", "result": -0.349}, {"measurement": "glycan array binding signal (z-score)", "setting": "[18]", "result": 1.6}, {"measurement": "glycan array binding signal (z-score)", "setting": "[19]", "result": -0.597}, {"measurement": "glycan array binding signal (z-score)", "setting": "[20]", "result": -0.521}, {"measurement": "glycan array binding signal (z-score)", "setting": "[21]", "result": -0.607}, {"measurement": "glycan array binding signal (z-score)", "setting": "[22]", "result": -0.192}, {"measurement": "glycan array binding signal (z-score)", "setting": "[23]", "result": 0.441}, {"measurement": "glycan array binding signal (z-score)", "setting": "[24]", "result": 0.385}, {"measurement": "glycan array binding signal (z-score)", "setting": "[25]", "result": -0.413}, {"measurement": "glycan array binding signal (z-score)", "setting": "[26]", "result": -0.702}, {"measurement": "glycan array binding signal (z-score)", "setting": "[27]", "result": -0.875}, {"measurement": "glycan array binding signal (z-score)", "setting": "[28]", "result": -0.747}, {"measurement": "glycan array binding signal (z-score)", "setting": "[29]", "result": 0.266}, {"measurement": "glycan array binding signal (z-score)", "setting": "[30]", "result": -0.607}, {"measurement": "glycan array binding signal (z-score)", "setting": "[31]", "result": 0.675}]}]}
